PubChem BioAssay AID686937 | Drosophila RNAi Screening Center – 2013
Purpose: 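Knock-downs that reduce output of a secreted reporter enzyme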 (primary screen). Cells: Drosophila S2 cells expressing secreted horseradish peroxidase. Reagents: long dsRNA against Drosophila genes. Time to read-out: about 5.5 days (5 days dsRNA, then 12 h reporter induction). Conditions: reporter expression induced after 5 days of dsRNA, read 12 h later; inducer not stated. Measured: 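Chemiluminescent measurement of peroxidase in the medium 12 h after reporter induction, following 5 days of dsRNA, given as a z-score per plate; higher means more secretion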. Scale: z-score: higher = more reporter secreted into medium.
The deposit covers about 23,000 reagents; below is a random part of those with a known target gene and a result. 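Reduced-secretion tags in replicate 1 do not always agree with the z-scores; no criterion for assigning the tags was given.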 A plus sign joins genes that one reagent is predicted to hit. Not all columns of the deposit are shown. Reagent sequences are not shown. The record does not give: the amount of reagent.

Gene | PubChem SID | z-score, replicate 1 | z-score, replicate 2 | z-score, replicate 3
CG5555 | SID104195626 | 0.29 | 0.49 | –
CG2906 | SID104186633 | 0.34 | 0.4 | –
CG15255 | SID104181661 | -0.03 | 0.14 | –
Uch (Ubiquitin carboxy-terminal hydrolase) | SID104180589 | 0.39 | -0.28 | –
E(spl)m8-HLH (Enhancer of split m8, helix-loop-helix) | SID104196446 | 0.27 | 0.17 | –
CG11249 | SID104191437 | 0.26 | 0.35 | –
Lpt (Lost PHDs of trr) | SID104184083 | 0.03 | 0.13 | –
Lpt (Lost PHDs of trr) | SID104184307 | -0.09 | -0.34 | –
CG31675 | SID104181617 | 0.46 | -1.94 | –
SdhC (Succinate dehydrogenase, subunit C) | SID104195880 | 0.43 | 0.51 | –
CG2767 | SID104195243 | 0.53 | 0.51 | –
CG15649 | SID104184032 | 0.09 | 0.23 | –
glu (gluon) | SID104183331 | 0.18 | 0.03 | –
CG8851 | SID104180510 | 0.55 | 0.38 | –
CG32639 | SID104198764 | 0.49 | 0.84 | –
CG11912 | SID104180124 | 0.23 | 0.25 | –
Fuca (alpha-L-fucosidase) | SID104190383 | 0.5 | 0.46 | –
spz3 (spatzle 3) | SID104182183 | 0.53 | 0.19 | –
spz3 (spatzle 3) | SID104182800 | 0.27 | -0.06 | –
eIF3k (eukaryotic translation initiation factor 3 subunit k) | SID104183848 | 0.68 | 0.7 | –
tin (tinman) | SID104196875 | 0.53 | 0.54 | –
tin (tinman) | SID104202212 | -2.15 | -1.8 | –
CG15027 | SID104199400 | 0 | 0.22 | –
CG4250 | SID104184247 | 0.5 | 0.44 | –
CG4712 | SID104186674 | 0.44 | 0.3 | –
CG3546 | SID104198100 | 0.44 | 0.17 | –
UK114 | SID104181765 | 0.16 | 0.08 | –
GlyT (Glycine transporter) | SID104184304 | 0.57 | 0.32 | –
TfAP-2 (Transcription factor AP-2) | SID104191393 | -0.02 | -0.08 | –
Lnpk (Lunapark) | SID104187046 | 0.01 | 0.4 | –
CG4896 | SID104180463 | 0.23 | 0.1 | –
Act57B (Actin 57B) | SID104183834 | 0.25 | 0.27 | –
CG12224 | SID104194272 | -0.41 | 0.21 | –
Desat2 (Desaturase 2) | SID104195711 | -0.16 | -0.47 | –
DIP-kappa (Dpr-interacting protein kappa) | SID104181128 | -1.82 | -0.41 | –
DIP-kappa (Dpr-interacting protein kappa) | SID104181129 | -0.38 | 0.27 | –
CG8173 | SID104199880 | 0.3 | 0.05 | –
TrissinR (Trissin receptor) | SID104182126 | 0.09 | 0.07 | –
TrissinR (Trissin receptor) | SID104182127 | 0.32 | 0.3 | –
TrissinR (Trissin receptor) | SID104182128 | 0.29 | -0.19 | –
CG4995 | SID104182593 | 0.27 | 0.31 | –
CG1792 | SID104195082 | 0.22 | 0.23 | –
gcm2 | SID104183330 | 0.34 | 0.34 | –
Kal1 (Kallmann syndrome 1) | SID104195775 | 0.2 | 0.22 | –
Klp61F (Kinesin-like protein at 61F) | SID104188463 | -2.05 | -1.5 | –
Cyp6g1 (Cytochrome P450 6g1) | SID104187178 | 0.27 | 0.29 | –
Nipped-A | SID104184674 | 0.57 | 0.25 | 0.1
Nipped-A | SID104184675 | -1.06 | -0.92 | –
Nipped-A | SID104184676 | -0.53 | -1.12 | –
Nipped-A | SID104187530 | -1.08 | -0.48 | –
Nipped-A | SID104201865 | 0.75 | 0.71 | –
CR18275 + CG13373 | SID104197692 | 0.4 | 0.19 | –
stas (Stasimon) | SID104199896 | -0.11 | 0.4 | –
vri (vrille) | SID104183425 | 0.28 | -0.17 | –
spz4 (spatzle 4) | SID104182202 | -0.77 | -0.21 | –
DCX-EMAP | SID104189804 | 0.28 | 0.11 | –
DCX-EMAP | SID104189805 | 0.65 | 0.37 | –
CG5348 | SID104186725 | 0.45 | 0.23 | –
Vha36-1 (Vacuolar H[+] ATPase 36kD subunit 1) | SID104186890 | 0.61 | 0.51 | –
CG31789 | SID104181437 | 0.06 | 0.25 | –
CG11828 | SID104194186 | 0.25 | 0.38 | –
CG11828 | SID104202003 | 0.18 | -0.06 | –
tou (toutatis) | SID104185798 | 0.26 | 0.32 | –
tou (toutatis) | SID104202095 | 1.64 | 0.79 | –
beat-Vc (beaten path Vc) | SID104192719 | -0.46 | 0.22 | –
beat-Vc (beaten path Vc) | SID104194641 | -0.56 | -0.54 | –
CG8229 + CG33199 | SID104184926 | -0.35 | – | –
CG7333 | SID104196021 | 0.48 | 0.54 | –
Osi10b (Osiris 10b) | SID104192071 | 0.55 | 0.53 | –
CG2082 | SID104191917 | 0.11 | 0.36 | –
Spc25 | SID104193956 | -1.67 | -0.97 | –
kek4 (kekkon 4) | SID104183012 | 0.26 | 0.28 | –
CG1074 | SID104191935 | 0.29 | 0.44 | 0.16
lncRNA:CR41443 (long non-coding RNA:CR41443) | SID104187525 | 0.11 | 0.27 | –
nAChRalpha7 (nicotinic Acetylcholine Receptor alpha7) | SID104199870 | 0.69 | 0.27 | –
nAChRalpha7 (nicotinic Acetylcholine Receptor alpha7) | SID104199873 | 0.42 | 0.22 | –
Ras64B (Ras oncogene at 64B) | SID104188481 | 0 | 0.25 | –
Sln (Silnoon) | SID104186925 | 0.2 | 0.22 | –
Coa8 (Cytochrome c oxidase assembly factor 8) | SID104197751 | 0.13 | 0.34 | –
CG43673 + CG43672 | SID104199244 | 0.31 | 0.26 | –
CG43673 + CG43672 | SID104199900 | 0.09 | 0.17 | –
CG4853 | SID104186690 | 0.45 | 0.44 | –
Dic4 | SID104190109 | 0.37 | -0.39 | –
bdg (bedraggled) | SID104186928 | 0.32 | 0.42 | –
Ance-2 | SID104182331 | 0.11 | 0.23 | –
CG8852 | SID104180511 | 0.15 | 0.28 | –
CG15199 | SID104199438 | 0.28 | 0.3 | –
CG30203 | SID104186482 | -0.08 | 0.19 | –
CG31200 | SID104195077 | 0.2 | 0.28 | –
mEFTu2 (mitochondrial translation elongation factor Tu 2) | SID104185955 | 0.07 | -0.2 | –
Pgd (Phosphogluconate dehydrogenase) | SID104198489 | 0.14 | 0.22 | –
PPO1 (Prophenoloxidase 1) | SID104185721 | 0.45 | 0.44 | –
CSN1b (COP9 signalosome subunit 1b) | SID104190900 | -0.64 | -0.59 | –
CG9837 | SID104196365 | 0.09 | 0.23 | –
mid (midline) | SID104182769 | 0.37 | 0.1 | 0.25
mid (midline) | SID104201222 | 0.14 | -0.79 | –
CG42502 + CG10570 | SID104181863 | 0.65 | 0.32 | –
CG14630 | SID104197958 | 0.37 | 0.38 | –
CG14630 | SID104198445 | 0.26 | 0 | –
CG6961 + CG18259 | SID104199591 | 0.05 | 0.4 | –
CG6961 + CG18259 | SID104199811 | 0.51 | 0.2 | –
TwdlX (TweedleX) | SID104198943 | 0.02 | -0.48 | –
CG5568 | SID104190310 | 0.06 | 0.58 | 0.34
CG5568 | SID104202175 | -0.2 | -0.4 | –

Taken from above:
CG7333 [SID104196021], z-score, replicate 2: 0.54
DIP-kappa (Dpr-interacting protein kappa) [SID104181128], z-score, replicate 1 = -1.82
For “z-score, replicate 2”, DIP-kappa (Dpr-interacting protein kappa) [SID104181129] shows 0.27
For “z-score, replicate 1”, TwdlX (TweedleX) [SID104198943] has 0.02
Value for Cyp6g1 (Cytochrome P450 6g1) [SID104187178] in “z-score, replicate 2”: 0.29
For “z-score, replicate 2”, Dic4 [SID104190109] is entered as -0.39
